For some of these results: Where a protein sequence is shown, tags need not be part of it. For some of these results: The exact form of at least one protein or probe is not confirmed. For some of these results: No signal at the amounts used counts as a negative. For some of these results: At least one result comes from cells or an extract, where the contact may be indirect.
What was measured:
[1] = target: T1, IB1 expressed in betaTC3 cells (Rattus) (UniProt Q9R237); test: activity in cells; settings: luciferase transactivation in betaTC3; absent in InR1-G9; protein in cells; variant of RIPE3; only the site is given
T1 sequence (limits assumed): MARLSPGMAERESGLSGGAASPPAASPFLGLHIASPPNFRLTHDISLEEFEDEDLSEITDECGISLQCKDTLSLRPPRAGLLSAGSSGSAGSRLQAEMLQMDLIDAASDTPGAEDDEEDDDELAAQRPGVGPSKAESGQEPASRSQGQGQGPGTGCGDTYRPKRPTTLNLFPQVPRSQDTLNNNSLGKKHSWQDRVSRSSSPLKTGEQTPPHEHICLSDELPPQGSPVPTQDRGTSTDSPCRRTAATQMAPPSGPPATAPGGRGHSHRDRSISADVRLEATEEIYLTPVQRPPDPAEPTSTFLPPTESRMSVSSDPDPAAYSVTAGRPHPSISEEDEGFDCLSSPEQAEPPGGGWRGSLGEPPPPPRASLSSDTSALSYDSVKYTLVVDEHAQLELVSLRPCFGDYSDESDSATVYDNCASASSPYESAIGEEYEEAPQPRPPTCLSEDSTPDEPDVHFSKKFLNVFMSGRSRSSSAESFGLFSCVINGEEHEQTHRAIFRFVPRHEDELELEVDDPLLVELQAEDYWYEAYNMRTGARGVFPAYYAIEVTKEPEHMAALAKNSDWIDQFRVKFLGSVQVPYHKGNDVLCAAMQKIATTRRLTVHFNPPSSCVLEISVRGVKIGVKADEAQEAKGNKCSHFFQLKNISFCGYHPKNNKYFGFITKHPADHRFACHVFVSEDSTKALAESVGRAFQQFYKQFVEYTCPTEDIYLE

Sequences of proteins named here, by UniProt entry; tags and fusion partners are left off. A change or cut given only in a name is not applied to a line headed by its entry.
UniProt Q9R237: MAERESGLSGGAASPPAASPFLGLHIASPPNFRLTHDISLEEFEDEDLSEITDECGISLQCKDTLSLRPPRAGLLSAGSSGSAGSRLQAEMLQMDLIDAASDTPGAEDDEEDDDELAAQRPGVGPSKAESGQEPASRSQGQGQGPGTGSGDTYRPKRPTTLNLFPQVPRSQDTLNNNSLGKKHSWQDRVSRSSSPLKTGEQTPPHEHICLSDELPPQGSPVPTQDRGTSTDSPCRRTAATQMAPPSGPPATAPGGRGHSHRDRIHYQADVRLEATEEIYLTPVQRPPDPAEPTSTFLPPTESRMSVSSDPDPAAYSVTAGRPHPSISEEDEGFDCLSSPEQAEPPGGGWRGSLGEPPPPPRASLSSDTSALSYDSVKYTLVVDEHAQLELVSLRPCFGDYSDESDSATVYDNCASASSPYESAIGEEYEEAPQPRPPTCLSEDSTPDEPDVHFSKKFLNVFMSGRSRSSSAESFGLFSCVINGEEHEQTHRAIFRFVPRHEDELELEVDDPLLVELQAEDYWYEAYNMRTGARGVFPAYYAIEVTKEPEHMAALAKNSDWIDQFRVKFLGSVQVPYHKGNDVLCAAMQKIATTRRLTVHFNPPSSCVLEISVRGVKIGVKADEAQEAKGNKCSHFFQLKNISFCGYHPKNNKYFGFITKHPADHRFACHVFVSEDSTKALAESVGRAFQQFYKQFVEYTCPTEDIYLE

[2] = system: IB1/GTII- and RIPE3-binding activity in betaTC3 nuclear extract (Mus musculus); test: EMSA; settings: protein in an extract; label: 32P
[3] = target: T2, IB1 1-280 (Rattus) (UniProt Q9R237); test: binding assay; settings: SouthWestern; purified recombinant protein; label: 32P
T2 sequence: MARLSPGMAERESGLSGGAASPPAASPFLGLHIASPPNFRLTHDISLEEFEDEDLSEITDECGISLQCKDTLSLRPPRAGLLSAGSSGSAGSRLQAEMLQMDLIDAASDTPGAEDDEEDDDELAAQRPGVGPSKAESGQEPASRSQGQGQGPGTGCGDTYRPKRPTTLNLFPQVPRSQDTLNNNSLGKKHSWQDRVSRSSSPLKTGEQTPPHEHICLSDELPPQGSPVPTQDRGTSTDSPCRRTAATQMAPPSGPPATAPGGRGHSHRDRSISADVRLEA

Row | Sequence | activity on this sequence [1] [fold] | binding result [2] | binding result [3]
1 | GATCTGGAAACTGCAGCTTCAGCCCCTCTGGCCATCTGCTGATCCG (double strand) [5xRIPE3 SV40 minimal promoter luciferase reporter] | 5 |  | 
2 | GATCTGGAAACTGCAGCTTCAGCCCCTCTGGCCATCTGCTGATCCG (double strand) [RIPE3] |  | binds | 
3 | GTAAAGGGTGTATTGATTGGATTACCATCAATACTCAGCTTCT (double strand) [GTII] |  | binds | no binding

— patent publication US6620914, “Transcription factor islet-brain 1 (IB1)” (Gerard)
